Reference: US5750141A, “Administration of vaso-active agent and therapeutic agent” (The University of Queensland, priority 1993, dated 1998)

How the values were obtained:
[1] = coiontophoresis with norepinephrine; up to a depth of 3 mm; cited from earlier work
[2] = type: in vivo, rat (male Wistar); conditions: in the presence of phenylephrine
[3] = presence of phenylephrine, subcutaneous administration in rats; cited from earlier work

For `CCN(CC)CC(=O)Nc1c(C)cccc1C` [Lidocaine], the “Local concentrations of lidocaine in the skin” value [1] is given as “increased local concentrations”, the “Concentration in plasma and contralateral tissues” value [2] is given as “decreased” and the “Concentration in tissues below the application area” value ([2]; FIGS. 3 & 4) is given as “increased”. For the same molecule, the “Plasma levels of lidocaine” value [3] was “decrease in the plasma levels”.
